# Measured values: PubChem BioAssay AID504467 (National Center for Advancing Translational Sciences (NCATS), 2011)
# In all, about 330,000 compounds went through this assay and about 7,700 (2.3%) were called active. The inconclusive results got no clear call from the source; some entries with a clear call stand among them for comparison. Calls follow the shape of the dose curve; as a rule, active = well fitted inhibition curve with a large enough effect; inconclusive = small, poorly fitted or top-dose-only effect, or effect the other way; inactive = flat fitted curve, though single readings scatter. Where the call is inconclusive, the potency comes from a doubtful curve fit.
# Assay: qHTS screen for small molecules that inhibit ELG1-dependent DNA repair in human embryonic kidney (HEK293T) cells expressing luciferase-tagged ELG1; also: nearly all actives have a fitted effect of over 55% in size
# Conditions: HEK293T ELG1-luciferase reporter, luminescence, 16 h, DNA damage induced by 5-fluorouridine; series mostly up to 46.1 µM
# Method in brief: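 Cells (2,000 per well) received 5-fluorouridine plus test compound or DMSO and were incubated 16 hr at 37 °C, 5% CO2. Luciferase activity was read by luminescence 30 min after ONE-Glo addition; signal suppression marked inhibition of damage-induced ELG1 function.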
# Potency is read from the fitted curve at half-maximal effect.
row,Structure (SMILES),Potency
1,FC(F)Oc1ccccc1/C=N/n1cnc2ccccc21,"inconclusive: 29.1 µM [activator, single point]"
2,CC(C)C(=O)NC(NC(=S)Nc1ccc(S(N)(=O)=O)cc1)C(Cl)(Cl)Cl (stereo not drawn),inactive
3,CCOc1cc(C(=S)N2CCOCC2)ccc1OS(=O)(=O)c1ccc(C)cc1,"inconclusive: 16.4 µM [inhibitor, partial curve]"
4,Cc1ccc(CNC(=O)C2CC(c3cccc([N+](=O)[O-])c3)=NO2)o1 (stereo not drawn),"inconclusive: 11.6 µM [activator, partial curve]"
5,COc1cc(/C=N/NC(=O)c2ccc3c(c2)OCCO3)cc(Br)c1O,"inconclusive: 20.6 µM [activator, single point]"
6,COc1ccccc1C(=O)NC(=O)COC(=O)CNC(=O)c1ccc(Cl)c([N+](=O)[O-])c1,inactive
7,O=C(c1ccc2nc(N3CCOCC3)sc2c1)N1CCCC1,"inconclusive: 20.6 µM [activator, single point]"
8,O=[N+]([O-])c1ccccc1/C=C/C=N/n1c(-c2ccc(Cl)cc2)n[nH]c1=S,inactive
9,O=C(Nc1ccc(NC(=O)C2CCCCC2)nc1)c1ccccn1,"inconclusive: 6.51 µM [activator, full curve]"
10,COc1ccccc1N1CCN(C(=O)CCNC(=O)c2ccco2)CC1,"inconclusive: 18.3 µM [activator, partial curve]"
11,COc1ccc(C)cc1NC(=O)CNc1ccccc1CN(C)C1CCCCC1,"inconclusive: 13 µM [inhibitor, partial curve, poor fit]"
12,O=C(NCCc1ccccc1)c1ccc(-c2ccccc2Cl)o1,"inconclusive: 18.4 µM [activator, single point]"
13,Cc1cccc(NC(=O)NC2CCCc3ccccc32)c1 (stereo not drawn),inactive
14,Cc1ccc(C(=O)NCC(=O)O)cc1S(=O)(=O)N1CCCCC1,inactive
15,CC(=O)c1sc2nc(-c3cccs3)cc(C(F)(F)F)c2c1N,inactive
16,CCN(CC)CCCn1c2c(c(SCC(=O)Nc3cc(C)on3)nc1=O)CCC2,inactive
17,O=C(c1cccn2c(=O)c3ccccc3nc12)N1CCN(Cc2ccc3c(c2)OCO3)CC1,"inconclusive: 29.1 µM [inhibitor, partial curve, poor fit]"
18,O=C(NCc1csc2ccccc12)Nc1cc(Cl)cc(Cl)c1,"inconclusive: 29.1 µM [inhibitor, single point]"
19,Cc1nc(N2CCOCC2)c2c(C)c(C(=O)Nc3ccc(F)cc3F)sc2n1,"inconclusive: 29.1 µM [inhibitor, single point]"
20,CN(CCOc1ccc(Cl)cc1)C(=O)c1cc(-c2ccco2)nc2ccccc12,"inconclusive: 13 µM [inhibitor, partial curve, poor fit]"
21,CCCCNc1c(-c2cccc(SC3CCCCC3)c2)nc2ccc(Cl)cn12,"inconclusive: 20.6 µM [inhibitor, partial curve, poor fit]"
22,C=CCNC(=S)N1CCN(c2cc3c(cc2F)c(=O)c(C(=O)O)cn3CC)CC1,"inconclusive: 13 µM [inhibitor, partial curve]"
23,Cc1ccc(C(=O)OC(C)C(=O)N(C)C2CCCCC2)cc1S(=O)(=O)N1CCCCC1 (stereo not drawn),"inconclusive: 29.1 µM [inhibitor, single point]"

row,Structure (SMILES),Potency
1,c1coc(-c2nnc(-c3ccco3)nn2)c1,inactive
2,O=C(O)Cn1c(SCCOc2ccccc2F)nc2ccccc21,inactive
3,C/C(=N/NC(=O)c1ccc(Cl)s1)c1ccc(NC(=O)COc2ccc(Cl)cc2)cc1,inactive
4,COC(=O)Cn1cc(/C=C/c2cc[n+](C)cc2)c2ccccc21,inactive
5,CC(C)NC(=O)Cn1c(SCC(=O)N2CCCCCC2)nc2ccccc21,inactive
6,Cc1ccc(CC(=O)O/N=C(\N)c2ccccn2)cc1,"inconclusive: 18.3 µM [activator, partial curve]"
7,CCn1c(=O)c(C(=O)NNC(=O)c2ccccc2Br)c(O)c2ccccc21,inactive
8,FC(F)(F)c1nnc2c3ccccc3c(Cl)nn12,"inconclusive: 29.1 µM [inhibitor, single point]"
9,COc1cccc(C(=O)Cn2c(NCCO)nc3ccccc32)c1,inactive
10,CCc1noc(C)c1C(=O)Nc1nc(-c2ccccc2)cs1,"inconclusive: 11.6 µM [activator, partial curve]"
11,COC(=O)c1ccc(CNC(=O)c2ccc3c(c2)OCCO3)cc1,"inconclusive: 16.4 µM [activator, single point]"
12,O=c1c2c(nc3c(-c4cccc(Br)c4)c[nH]n13)CCCC2,"inconclusive: 6.51 µM [inhibitor, single point]"
13,O=C(COc1cccnc1[N+](=O)[O-])Nc1cccc2ccccc12,inactive
14,CCN(CC)c1ccc(C(=O)N/N=C(\C)c2ccc(OC)c(OC)c2)cc1,inactive
15,COc1cccc(OC)c1C(=O)NC(=S)Nc1ccc2c(c1)OCCO2,"inconclusive: 23.1 µM [activator, partial curve]"
16,CCOc1ccc2nc(SC3CC(=O)N(c4cccc(OC)c4)C3=O)sc2c1 (stereo not drawn),"inconclusive: 16.4 µM [activator, partial curve]"
17,COC(=O)c1c(NC(=O)COC(=O)c2ccc(Cl)cc2[N+](=O)[O-])sc2c1CCCCC2,"inconclusive: 20.6 µM [activator, partial curve, poor fit]"
18,Nc1nnc(CSCc2ccc(F)cc2)s1,"inconclusive: 29.1 µM [activator, partial curve, poor fit]"
19,O=C(OCCc1cc2ccccc2c(=O)o1)N1CCOCC1,"inconclusive: 20.6 µM [activator, partial curve]"
20,O=C(COC(=O)c1ccccc1NC(=O)c1ccccc1)c1cccc([N+](=O)[O-])c1,inactive
21,CCN(c1ccc(NC(=O)COC(=O)c2ccc3ccccc3n2)cc1)C(C)C,inactive
22,CCOc1cc(/C=C2/SC(=Nc3ccccc3)N(Cc3cccnc3)C2=O)ccc1OCC#N,active: 18.4 µM
23,O=C(Nc1nc2ccccc2[nH]1)c1cccc(Cl)c1,"inconclusive: 0.794 µM [activator, partial curve, poor fit]"

row,Structure (SMILES),Potency
1,O=C(c1cccc(S(=O)(=O)N2CCOCC2)c1)N(Cc1ccco1)Cc1cccs1,"inconclusive: 29.1 µM [inhibitor, partial curve, poor fit]"
2,CC1=NN(c2ccc(C(=O)OC(C)C)cc2)C(=O)/C1=C\C=C\c1ccco1,inactive
3,CN1N=C(C(=O)N2CCCC(C(=O)c3cccc(C(F)(F)F)c3)C2)CCC1=O (stereo not drawn),inactive
4,Cn1nnnc1Sc1ncnc2scc(-c3ccccc3C(F)(F)F)c12,"inconclusive: 29.1 µM [inhibitor, single point]"
5,O=C(CN1CCC(NC(=O)c2ccccc2Cl)CC1)NCc1ccccc1,"inconclusive: 25.9 µM [activator, partial curve, poor fit]"
6,CCOc1ccc(CN(C)CC(O)COC(c2ccc(OC)cc2)c2ccc(OC)cc2)cc1 (stereo not drawn),"inconclusive: 16.4 µM [inhibitor, partial curve, poor fit]"
7,C#CCOCCOCCOCCNc1nc(N2CCN(C(=O)[C@H](CCCCN)n3cc([C@@H](N)C(C)CC)nn3)CC2)nc(N2CCN(C(=O)[C@H](Cc3cc4ccccc4[nH]3)n3cc([C@@H](N)C(C)CC)nn3)CC2)n1 (stereo partly drawn),"inconclusive: 32.6 µM [activator, partial curve, poor fit]"
8,Cc1ccccc1N(CC(=O)NCCc1ccccc1)C(=O)c1ccc(N2CCCC2)nc1,"inconclusive: 23.1 µM [inhibitor, single point]"
9,COc1ccc(/C=C/C(=O)NC(=S)NNC(=O)[C@H]2C[C@@H]2c2ccccc2)cc1OC,"inconclusive: 23.1 µM [inhibitor, single point]"
10,O=C(c1ccc(F)cc1)C1CCN(C(=S)Nc2ccc(F)cc2)CC1,active: 10.3 µM
11,CC(OC(=O)c1cccs1)C(=O)Nc1nc(-c2ccccc2)cs1 (stereo not drawn),"inconclusive: 25.9 µM [activator, single point]"
12,Cc1ccc(S(=O)(=O)N(C)C[C@@H]2Oc3ccc(NC(=O)Cn4cnnn4)cc3C(=O)N([C@@H](C)CO)C[C@H]2C)cc1,inactive
13,COc1ccc2oc(C(=O)OCC(=O)NCCc3ccc(S(N)(=O)=O)cc3)c(C)c2c1,"inconclusive: 18.3 µM [inhibitor, partial curve]"
14,Cc1cc(C)n(CCC(=O)N=Nc2c(O)[nH]c3ccc(Br)cc23)n1,"inconclusive: 29.1 µM [inhibitor, single point]"
15,O=C(N/N=C/c1ccc(Cl)cc1)C1CC12CCC2 (stereo not drawn),"inconclusive: 25.9 µM [activator, single point]"
16,COC(=O)c1cc(C)sc1NC(=O)CN1CCN(C(=O)C2CCCO2)CC1 (stereo not drawn),"inconclusive: 14.6 µM [inhibitor, partial curve, poor fit]"
17,COc1ccc(-c2csc(NC(=O)CSc3n[nH]c(N)n3)n2)cc1,"inconclusive: 29.1 µM [inhibitor, single point]"
18,Cc1cc(-n2c(C)cc(C(=O)COc3ccc([N+](=O)[O-])cc3)c2C)no1,"inconclusive: 23.1 µM [inhibitor, single point]"
19,Cc1cc(=O)oc2cc(NC(=O)Cc3ccccc3)ccc12,"inconclusive: 11.6 µM [activator, single point]"
20,COc1ccc(/C=C/C(=O)NC(=S)NNC(=O)c2ccco2)cc1OC,inactive
21,CC(C(=O)Nc1ccccc1F)N1CCN(S(=O)(=O)c2ccc(C(F)(F)F)cc2)CC1 (stereo not drawn),inactive
22,Cc1ccc(NS(=O)(=O)c2cccs2)c(C)c1,"inconclusive: 18.3 µM [activator, partial curve, poor fit]"

# Gathered by group, the compounds so far containing an NH in an aromatic ring
row,Structure (SMILES),Potency
8,O=[N+]([O-])c1ccccc1/C=C/C=N/n1c(-c2ccc(Cl)cc2)n[nH]c1=S,inactive
12,O=c1c2c(nc3c(-c4cccc(Br)c4)c[nH]n13)CCCC2,"inconclusive: 6.51 µM [inhibitor, single point]"
23,O=C(Nc1nc2ccccc2[nH]1)c1cccc(Cl)c1,"inconclusive: 0.794 µM [activator, partial curve, poor fit]"
7,C#CCOCCOCCOCCNc1nc(N2CCN(C(=O)[C@H](CCCCN)n3cc([C@@H](N)C(C)CC)nn3)CC2)nc(N2CCN(C(=O)[C@H](Cc3cc4ccccc4[nH]3)n3cc([C@@H](N)C(C)CC)nn3)CC2)n1 (stereo partly drawn),"inconclusive: 32.6 µM [activator, partial curve, poor fit]"
14,Cc1cc(C)n(CCC(=O)N=Nc2c(O)[nH]c3ccc(Br)cc23)n1,"inconclusive: 29.1 µM [inhibitor, single point]"
17,COc1ccc(-c2csc(NC(=O)CSc3n[nH]c(N)n3)n2)cc1,"inconclusive: 29.1 µM [inhibitor, single point]"
